Source: PMC7210777

What was measured:
Test in all cases: two-hybrid; CIPK proteins fused to the GAL4 BD (pGBKT7, strain Y187), CBL10 proteins fused to the GAL4 AD (pGADT7, strain Y2HGold); mated diploids, serial dilutions on SD-LW without histidine, 5 d; one orientation only
[1] = target: T1, AtCIPK18 (CBL-interacting protein kinase 18 of Arabidopsis) (Arabidopsis thaliana) (UniProt Q9LP51)
T1 sequence: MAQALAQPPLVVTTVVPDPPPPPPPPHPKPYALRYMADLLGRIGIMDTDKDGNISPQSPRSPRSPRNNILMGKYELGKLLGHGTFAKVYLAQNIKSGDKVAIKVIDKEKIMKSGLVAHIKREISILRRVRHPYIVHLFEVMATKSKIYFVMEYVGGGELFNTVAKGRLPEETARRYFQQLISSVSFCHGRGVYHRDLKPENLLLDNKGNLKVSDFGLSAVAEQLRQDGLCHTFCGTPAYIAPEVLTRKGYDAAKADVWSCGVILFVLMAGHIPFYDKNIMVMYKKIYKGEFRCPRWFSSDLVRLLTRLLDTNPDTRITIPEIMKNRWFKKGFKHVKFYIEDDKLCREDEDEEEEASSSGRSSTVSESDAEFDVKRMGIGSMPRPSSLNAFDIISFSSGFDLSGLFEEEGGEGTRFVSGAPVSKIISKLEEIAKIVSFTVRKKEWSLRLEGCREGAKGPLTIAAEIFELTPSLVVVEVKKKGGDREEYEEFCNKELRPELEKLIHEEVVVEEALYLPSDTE

[2] = target: T2, AtCIPK6 (CBL-interacting protein kinase 6 of Arabidopsis) (Arabidopsis thaliana) (UniProt O65554)
T2 sequence: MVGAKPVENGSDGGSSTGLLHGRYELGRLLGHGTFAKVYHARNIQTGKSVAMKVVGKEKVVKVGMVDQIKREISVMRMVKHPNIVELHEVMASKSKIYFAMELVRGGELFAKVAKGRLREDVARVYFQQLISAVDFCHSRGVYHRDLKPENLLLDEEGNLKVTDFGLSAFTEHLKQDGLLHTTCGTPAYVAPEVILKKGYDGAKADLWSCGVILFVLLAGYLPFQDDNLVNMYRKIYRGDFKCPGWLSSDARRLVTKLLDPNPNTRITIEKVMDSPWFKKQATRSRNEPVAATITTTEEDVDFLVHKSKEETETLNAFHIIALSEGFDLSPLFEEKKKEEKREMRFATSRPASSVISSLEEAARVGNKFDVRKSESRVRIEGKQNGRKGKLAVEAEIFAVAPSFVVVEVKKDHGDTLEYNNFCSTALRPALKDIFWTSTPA

[3] = target: T3, AtCIPK13 (CBL-interacting protein kinase 13 of Arabidopsis) (Arabidopsis thaliana) (UniProt O22971)
T3 sequence: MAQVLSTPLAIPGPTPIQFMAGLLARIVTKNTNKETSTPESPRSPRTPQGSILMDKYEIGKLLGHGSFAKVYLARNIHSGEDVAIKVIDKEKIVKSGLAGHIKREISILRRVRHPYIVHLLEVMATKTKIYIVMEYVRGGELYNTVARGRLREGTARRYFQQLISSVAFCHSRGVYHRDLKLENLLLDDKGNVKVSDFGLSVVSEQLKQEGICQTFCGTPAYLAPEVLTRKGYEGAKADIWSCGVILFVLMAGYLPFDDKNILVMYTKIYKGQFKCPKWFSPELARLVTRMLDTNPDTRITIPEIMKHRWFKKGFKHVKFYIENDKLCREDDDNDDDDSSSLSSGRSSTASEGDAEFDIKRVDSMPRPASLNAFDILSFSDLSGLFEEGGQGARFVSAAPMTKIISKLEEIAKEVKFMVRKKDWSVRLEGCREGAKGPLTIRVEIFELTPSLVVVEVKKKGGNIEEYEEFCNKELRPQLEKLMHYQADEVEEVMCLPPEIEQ

[4] = target: T4, AtCIPK16 (CBL-interacting protein kinase 16 of Arabidopsis) (Arabidopsis thaliana) (UniProt Q9SEZ7)
T4 sequence: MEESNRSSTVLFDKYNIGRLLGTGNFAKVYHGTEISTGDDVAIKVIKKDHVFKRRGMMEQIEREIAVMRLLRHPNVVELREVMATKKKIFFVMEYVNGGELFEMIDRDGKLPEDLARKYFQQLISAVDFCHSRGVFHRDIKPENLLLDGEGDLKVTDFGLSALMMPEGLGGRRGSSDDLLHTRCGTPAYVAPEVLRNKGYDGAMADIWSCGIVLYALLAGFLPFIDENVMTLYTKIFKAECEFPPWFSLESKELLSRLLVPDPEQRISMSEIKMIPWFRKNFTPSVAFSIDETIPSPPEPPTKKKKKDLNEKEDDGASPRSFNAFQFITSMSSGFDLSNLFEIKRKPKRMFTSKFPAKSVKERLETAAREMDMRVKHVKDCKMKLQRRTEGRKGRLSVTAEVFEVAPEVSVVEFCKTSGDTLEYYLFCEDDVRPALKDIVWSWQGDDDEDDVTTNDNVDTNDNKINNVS

| Substance | binding [1] | binding [2] | binding [3] | binding [4] |
| --- | --- | --- | --- | --- |
| EsCBL10a (CALCINEURIN B-LIKE10a of Eutrema salsugineum) | binds | – | – | – |
| SpCBL10b-1 (CALCINEURIN B-LIKE10b-1 of Schrenkiella parvula) | binds | binds | no binding | no binding |
| SpCBL10b-2 (CALCINEURIN B-LIKE10b-2 of Schrenkiella parvula) | binds | no binding | no binding | no binding |

No constants are given. Whether binding was seen depends on the method and setting. For part of these data: Binding can be weak; no strength is given.
